# According to PubChem BioAssay AID188 (DTP/NCI, 2004):
# The mice bore no tumour; each value counts animals alive of those treated. Survivors were counted at the toxicity check, usually on the fifth day, unless a day is given; later deaths do not show. Schedule codes are those of the source, read here as Q, the interval in days (D) or hours (H), X, the number of doses. Some entries hold several experiments; the values are given in rising order.
# System: CD2F1 mice, nontumored, toxicity/survival
# Test: NCI In Vivo Anticancer Drug Screen. Data for tumor model Nontumored Animals (Toxicity Test) in CD2F1 (CDF1) mice
# [1] = dose: 0.5 mg/kg/injection, schedule: Q01DX009 (ip), vehicle: saline
# [2] = dose: 1.0 mg/kg/injection, schedule: Q01DX009 (ip), vehicle: saline
# [3] = dose: 2.0 mg/kg/injection, schedule: Q01DX009 (ip), vehicle: saline
# [4] = dose: 4.0 mg/kg/injection, schedule: Q01DX009 (ip), vehicle: saline
# [5] = dose: 8.0 mg/kg/injection, schedule: Q01DX009 (ip), vehicle: saline
smiles,measurement,setting,value
CN(N=O)C(N)=O,survivor count,"dose: 36.0 mg/kg/injection, schedule: Q04DX003 (ip), vehicle: saline + alcohol",4 of 4
same,survivor count,"dose: 60.0 mg/kg/injection, schedule: Q04DX003 (ip), vehicle: saline + alcohol",4 of 4
same,survivor count,"dose: 100.0 mg/kg/injection, schedule: Q04DX003 (ip), vehicle: saline + alcohol",4 of 4
C1CCC2C[N-]CCC2C1.C1CCC2C[N-]CCC2C1.C1CCC2C[N-]CCC2C1.C1CCC2C[N-]CCC2C1.[Cl][Rh][Cl] (stereo unspecified),survivor count,"dose: 0.06 mg/kg/injection, schedule: Q03HX024 (ip), vehicle: saline",8 of 8
same,survivor count,"dose: 0.13 mg/kg/injection, schedule: Q03HX008 (ip), vehicle: saline",7 of 8
same,survivor count,"dose: 0.13 mg/kg/injection, schedule: Q03HX016 (ip), vehicle: saline",8 of 8
same,survivor count,"dose: 0.13 mg/kg/injection, schedule: Q03HX024 (ip), vehicle: saline",8 of 8
same,survivor count,"dose: 0.25 mg/kg/injection, schedule: Q01DX009 (ip), vehicle: saline",8 of 8
same,survivor count,"dose: 0.25 mg/kg/injection, schedule: Q03HX008 (ip), vehicle: saline",8 of 8
same,survivor count,"dose: 0.25 mg/kg/injection, schedule: Q03HX016 (ip), vehicle: saline",7 of 8
same,survivor count,"dose: 0.25 mg/kg/injection, schedule: Q03HX024 (ip), vehicle: saline",8 of 8
same,survivor count,[1],8 of 8
same,survivor count,"dose: 0.5 mg/kg/injection, schedule: Q03HX008 (ip), vehicle: saline",8 of 8
same,survivor count,"dose: 0.5 mg/kg/injection, schedule: Q03HX016 (ip), vehicle: saline",7 of 8
same,survivor count,"dose: 0.5 mg/kg/injection, schedule: Q03HX024 (ip), vehicle: saline",8 of 8
same,survivor count,"dose: 0.5 mg/kg/injection, schedule: Q04DX003 (ip), vehicle: saline",8 of 8
same,survivor count,"dose: 1.0 mg/kg/injection, schedule: Q01DX001 (ip), vehicle: saline",8 of 8
same,survivor count,[2],8 of 8
same,survivor count,"dose: 1.0 mg/kg/injection, schedule: Q03HX008 (ip), vehicle: saline",8 of 8
same,survivor count,"dose: 1.0 mg/kg/injection, schedule: Q03HX016 (ip), vehicle: saline",8 of 8
same,survivor count,"dose: 1.0 mg/kg/injection, schedule: Q03HX024 (ip), vehicle: saline",8 of 8
same,survivor count,"dose: 1.0 mg/kg/injection, schedule: Q04DX003 (ip), vehicle: saline",8 of 8
same,survivor count,"dose: 1.0 mg/kg/injection, schedule: Q08DX002 (ip), vehicle: saline",8 of 8
same,survivor count,"dose: 2.0 mg/kg/injection, schedule: Q01DX001 (ip), vehicle: saline",8 of 8
same,survivor count,[3],8 of 8
same,survivor count,"dose: 2.0 mg/kg/injection, schedule: Q03HX008 (ip), vehicle: saline",8 of 8
same,survivor count,"dose: 2.0 mg/kg/injection, schedule: Q03HX016 (ip), vehicle: saline",8 of 8
same,survivor count,"dose: 2.0 mg/kg/injection, schedule: Q03HX024 (ip), vehicle: saline",8 of 8
same,survivor count,"dose: 2.0 mg/kg/injection, schedule: Q04DX003 (ip), vehicle: saline",8 of 8
same,survivor count,"dose: 2.0 mg/kg/injection, schedule: Q08DX002 (ip), vehicle: saline",8 of 8
same,survivor count,"dose: 4.0 mg/kg/injection, schedule: Q01DX001 (ip), vehicle: saline",8 of 8
same,survivor count,[4],8 of 8
same,survivor count,"dose: 4.0 mg/kg/injection, schedule: Q03HX008 (ip), vehicle: saline",6 of 8
same,survivor count,"dose: 4.0 mg/kg/injection, schedule: Q03HX016 (ip), vehicle: saline",8 of 8
same,survivor count,"dose: 4.0 mg/kg/injection, schedule: Q04DX003 (ip), vehicle: saline",8 of 8
same,survivor count,"dose: 4.0 mg/kg/injection, schedule: Q08DX002 (ip), vehicle: saline",8 of 8
same,survivor count,"dose: 8.0 mg/kg/injection, schedule: Q01DX001 (ip), vehicle: saline",8 of 8
same,survivor count,[5],7 of 8
same,survivor count,"dose: 8.0 mg/kg/injection, schedule: Q04DX003 (ip), vehicle: saline",8 of 8
same,survivor count,"dose: 8.0 mg/kg/injection, schedule: Q08DX002 (ip), vehicle: saline",8 of 8
same,survivor count,"dose: 16.0 mg/kg/injection, schedule: Q01DX001 (ip), vehicle: saline",8 of 8
same,survivor count,"dose: 16.0 mg/kg/injection, schedule: Q04DX003 (ip), vehicle: saline",8 of 8
same,survivor count,"dose: 16.0 mg/kg/injection, schedule: Q08DX002 (ip), vehicle: saline",8 of 8
same,survivor count,"dose: 32.0 mg/kg/injection, schedule: Q01DX001 (ip), vehicle: saline",8 of 8
same,survivor count,"dose: 32.0 mg/kg/injection, schedule: Q08DX002 (ip), vehicle: saline",8 of 8
COc1ccc2c(c1O)-c1cc(O)cc3c1C(C2)NCC3 (stereo unspecified),survivor count,"dose: 1.0 mg/kg/injection, schedule: Q01DX001 (ip), vehicle: DMSO",2 of 2
same,survivor count,"dose: 10.0 mg/kg/injection, schedule: Q01DX001 (ip), vehicle: DMSO",0 of 2
same,survivor count,"dose: 100.0 mg/kg/injection, schedule: Q01DX001 (ip), vehicle: DMSO",0 of 2
Nc1ncn(C2OC(CO)C(O)C2O)c(=O)n1 (stereo unspecified),survivor count,"dose: 0.16 mg/kg/injection, schedule: Q01DX009 (ip), vehicle: saline",8 of 8
same,survivor count,"dose: 0.31 mg/kg/injection, schedule: Q01DX009 (ip), vehicle: saline",8 of 8
same,survivor count,[1],8 of 8
same,survivor count,"dose: 0.63 mg/kg/injection, schedule: Q01DX009 (ip), vehicle: saline",8 of 8
same,survivor count,[2],6 of 6 and 8 of 8
same,survivor count,"dose: 1.0 mg/kg/injection, schedule: Q01DX009 (oral), vehicle: saline",8 of 8
same,survivor count,"dose: 1.25 mg/kg/injection, schedule: Q01DX009 (ip), vehicle: saline",8 of 8
same,survivor count,"dose: 1.75 mg/kg/injection, schedule: Q04DX003 (ip), vehicle: saline",8 of 8
same,survivor count,[3],6 of 6 and 8 of 8
same,survivor count,"dose: 2.0 mg/kg/injection, schedule: Q01DX009 (oral), vehicle: saline",8 of 8
same,survivor count,"dose: 2.5 mg/kg/injection, schedule: Q01DX009 (ip), vehicle: saline",8 of 8
same,survivor count,"dose: 3.5 mg/kg/injection, schedule: Q04DX003 (ip), vehicle: saline",8 of 8
same,survivor count,[4],6 of 6 and 8 of 8
same,survivor count,"dose: 4.0 mg/kg/injection, schedule: Q01DX009 (oral), vehicle: saline",7 of 7
same,survivor count,"dose: 5.0 mg/kg/injection, schedule: Q01DX009 (ip), vehicle: saline",8 of 8
same,survivor count,"dose: 7.0 mg/kg/injection, schedule: Q04DX003 (ip), vehicle: saline",8 of 8
same,survivor count,[5],6 of 6 and 8 of 8
same,survivor count,"dose: 8.0 mg/kg/injection, schedule: Q01DX009 (oral), vehicle: saline",8 of 8
same,survivor count,"dose: 10.0 mg/kg/injection, schedule: Q01DX009 (ip), vehicle: saline",8 of 8
same,survivor count,"dose: 14.0 mg/kg/injection, schedule: Q04DX003 (ip), vehicle: saline",8 of 8
same,survivor count,"dose: 16.0 mg/kg/injection, schedule: Q01DX009 (ip), vehicle: saline",6 of 8 and 6 of 6
same,survivor count,"dose: 16.0 mg/kg/injection, schedule: Q01DX009 (oral), vehicle: saline",7 of 8
same,survivor count,"dose: 28.0 mg/kg/injection, schedule: Q04DX003 (ip), vehicle: saline",8 of 8
same,survivor count,"dose: 32.0 mg/kg/injection, schedule: Q01DX009 (ip), vehicle: saline",5 of 6
same,survivor count,"dose: 32.0 mg/kg/injection, schedule: Q01DX009 (oral), vehicle: saline",7 of 8
CN(N=O)C(=O)N[C@@H](C=O)[C@@H](O)[C@H](O)[C@H](O)CO,survivor count,"dose: 60.0 mg/kg/injection, schedule: Q01DX009 (ip), vehicle: saline",4 of 4
same,survivor count,"dose: 100.0 mg/kg/injection, schedule: Q01DX009 (ip), vehicle: saline",4 of 4
same,survivor count,"dose: 167.0 mg/kg/injection, schedule: Q01DX009 (ip), vehicle: saline",4 of 4
CC1C=NNC1=O (stereo unspecified),survivor count,"dose: 8.0 mg/kg/injection, schedule: Q03HX016 (ip), vehicle: saline",8 of 8
same,survivor count,"dose: 8.0 mg/kg/injection, schedule: Q03HX024 (ip), vehicle: saline",8 of 8
same,survivor count,"dose: 16.0 mg/kg/injection, schedule: Q03HX016 (ip), vehicle: saline",8 of 8
same,survivor count,"dose: 16.0 mg/kg/injection, schedule: Q03HX024 (ip), vehicle: saline",8 of 8
same,survivor count,"dose: 32.0 mg/kg/injection, schedule: Q03HX016 (ip), vehicle: saline",8 of 8
same,survivor count,"dose: 32.0 mg/kg/injection, schedule: Q03HX024 (ip), vehicle: saline",8 of 8
same,survivor count,"dose: 64.0 mg/kg/injection, schedule: Q01DX009 (ip), vehicle: saline",8 of 8
same,survivor count,"dose: 64.0 mg/kg/injection, schedule: Q03HX016 (ip), vehicle: saline",8 of 8
same,survivor count,"dose: 64.0 mg/kg/injection, schedule: Q03HX024 (ip), vehicle: saline",8 of 8
same,survivor count,"dose: 64.0 mg/kg/injection, schedule: Q04DX003 (ip), vehicle: saline",8 of 8
same,survivor count,"dose: 64.0 mg/kg/injection, schedule: Q08DX002 (ip), vehicle: saline",8 of 8
same,survivor count,"dose: 128.0 mg/kg/injection, schedule: Q01DX009 (ip), vehicle: saline",8 of 8
same,survivor count,"dose: 128.0 mg/kg/injection, schedule: Q04DX003 (ip), vehicle: saline",8 of 8
same,survivor count,"dose: 128.0 mg/kg/injection, schedule: Q08DX002 (ip), vehicle: saline",8 of 8
same,survivor count,"dose: 256.0 mg/kg/injection, schedule: Q01DX009 (ip), vehicle: saline",8 of 8
same,survivor count,"dose: 256.0 mg/kg/injection, schedule: Q04DX003 (ip), vehicle: saline",8 of 8
same,survivor count,"dose: 256.0 mg/kg/injection, schedule: Q08DX002 (ip), vehicle: saline",8 of 8
same,survivor count,"dose: 512.0 mg/kg/injection, schedule: Q01DX009 (ip), vehicle: saline",8 of 8
same,survivor count,"dose: 512.0 mg/kg/injection, schedule: Q04DX003 (ip), vehicle: saline",8 of 8
same,survivor count,"dose: 512.0 mg/kg/injection, schedule: Q08DX002 (ip), vehicle: saline",8 of 8
